Assay results published in patent US12123017B2, “Composition and method for cultivation, expansion, preservation and/or cell pretreatment” (REGENERO S.A., priority 2017, dated 2024).
At least one compound was matched to its structure with a doubt left.

Columns and labels:
Assay type in all cases: cell-based
[1] = system: Umbilical cord derived mesenchymal stem cells; test: Cryopreservation of MSCs (post-thaw viability by trypan blue, adherence, migration); conditions: human platelet based solution, 5% DMSO, 2 μM Pterostilbene; trypan blue after thawing
[2] = system: Mesenchymal stem cells obtained from the umbilical cord; test: Pretreatment against oxidative stress induced with H2O2 (live cells by Anexin V/7AAD); conditions: 4 hours pretreatment, 50 μM pterostilbene, then 1.5 mM H2O2
[3] = system: Umbilical cord derived mesenchymal stem cells; test: Biopreservation of MSCs at 4° C. for three days (viability by trypan blue, adhesion, proliferation, migration); conditions: for cell viability / survival after biopreservation (in words): supplement in CBS (0.1 μM pterostilbene, 2.5 μM Zinc, 0.1 nM ISO-1), 4° C., 3 days, versus CBS alone
Protocol: Approximately 200,000 umbilical cord derived mesenchymal stem cells were stored in 200 μl of commercial biopreservation solution (CBS) as a control and 200 μl of CBS supplemented with the medium supplement of the invention. The samples were kept at 4° C. for three days. Cells were resuspended in DMEM base, and viability was assessed by trypan blue exclusion assay. […] Cell adhesion was evaluated 24 hours after cells were seeded in 10 mm plates. […] Finally, the cells preserved with CBS proliferated less than those preserved in CBS with pterostilbene (FIG. 4D). Therefore, the solution of the invention improves the functionality of the cells after 3 days of biopreservation.

COc1cc(/C=C/c2ccc(O)cc2)cc(OC)c1 [Pterostilbene]
cell viability after cryopreservation (in words) [1]: viability is greater in the presence of the antioxidant
percentage of live cells after oxidative stress (in words) [2]: resistance to stress
percentage of live cells after oxidative stress (in words) ([2]; listed as pterostilbene): resistance to oxidative stress
proliferation after biopreservation (in words) ([3]; after 3 days of preservation, versus CBS without supplement): proliferate more efficiently
cell viability / survival after biopreservation (in words) [3]: significantly improves the survival
cell viability / survival after biopreservation (in words) ([3]; listed as pterostilbene): better cell viability
